Data taken from patent publication US20210023083A1.
Results are given in words; binding and its absence hold for the method and conditions named. In cells and extracts the contact can be indirect. A yes stands for co-enrichment or nearness to the bait. Other partners may have been found.

Protein sequences, listed by entry. Tags and fused reporters are not part of them. Residues count along the entry.
UniProt Q9HB71, residues 2-228: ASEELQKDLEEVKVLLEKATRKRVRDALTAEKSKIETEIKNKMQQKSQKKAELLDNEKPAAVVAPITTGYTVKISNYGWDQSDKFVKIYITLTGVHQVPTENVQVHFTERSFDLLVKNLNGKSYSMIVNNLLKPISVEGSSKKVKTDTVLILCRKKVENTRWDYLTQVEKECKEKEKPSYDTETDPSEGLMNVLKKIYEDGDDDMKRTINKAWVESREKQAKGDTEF
UniProt Q08AI8: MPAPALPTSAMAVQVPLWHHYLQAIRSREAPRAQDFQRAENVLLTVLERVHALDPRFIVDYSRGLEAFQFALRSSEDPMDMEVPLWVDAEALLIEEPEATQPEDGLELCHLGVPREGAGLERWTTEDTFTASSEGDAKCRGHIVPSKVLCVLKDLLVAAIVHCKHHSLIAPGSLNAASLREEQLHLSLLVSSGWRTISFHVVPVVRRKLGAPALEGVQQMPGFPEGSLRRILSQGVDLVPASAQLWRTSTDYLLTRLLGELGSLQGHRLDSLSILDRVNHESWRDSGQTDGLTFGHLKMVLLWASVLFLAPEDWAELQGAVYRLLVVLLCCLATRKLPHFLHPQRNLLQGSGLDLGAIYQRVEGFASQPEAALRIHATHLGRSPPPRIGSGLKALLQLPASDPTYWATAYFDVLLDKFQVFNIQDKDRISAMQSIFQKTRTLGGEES

Biological target: calcyclin-binding protein (CacyBP) (human) (UniProt Q9HB71)
Test: BioID proximity labelling in human skin organoids, streptavidin pull-down, mass spectrometry

- binding: binds
Substance: 3×HA-BASU-MAB21L4 fusion protein (from UniProt Q08AI8 1-447)
